Five molecules from publication PMC11076500, “Impact of distinct FG nucleoporin repeats on Nup98 self-association” (Nature Communications, 2024) can be followed below.

Numbering of substitutions follows the chain as printed. Names may count otherwise. No constants are given. Whether binding was seen depends on the method and setting. Some binding calls cover weakened binding; strength is not graded here.

What all share (experiment): dynamic light scattering; pH 3, 2.5 μM protein in 50 mM sodium phosphate, 1 mM TCEP, incubated 30 minutes at 65 °C before measurement, 25 °C; both purified
For assay [1], the target named is FG-repeat domain of human Nup98 (Nup98^FG; residues 1-384), wild type (human) (UniProt P52948).
Assay [2] deals with Nup98^FG F319S mutant (human) (UniProt P52948).
The target in assay [3] is Nup98^FG F102S/F319S double mutant (human) (UniProt P52948).
The target in assay [4] is Nup98^FG F102S mutant (human) (UniProt P52948).
Assay [5] has as its target Nup98^FG F228S mutant (human) (UniProt P52948).

B1: FG-repeat domain of human Nup98 (Nup98^FG; residues 1-384), wild type (protein)
chain: MFNKSFGTPFGGGTGGFGTTSTFGQNTGFGTTSGGAFGTSAFGSSNNTGGLFGNSQTKPGGLFGTSSFSQPATSTSTGFGFGTSTGTANTLFGTASTGTSLFSSQNNAFAQNKPTGFGNFGTSTSSGGLFGTTNTTSNPFGSTSGSLFGPSSFTAAPTGTTIKFNPPTGTDTMVKAGVSTNISTKHQCITAMKEYESKSLEELRLEDYQANRKGPQNQVGAGTTTGLFGSSPATSSATGLFSSSTTNSGFAYGQNKTAFGTSTTGFGTNPGGLFGQQNQQTTSLFSKPFGQATTTQNTGFSFGNTSTIGQPSTNTMGLFGVTQASQPGGLFGTATNTSTGTAFGTGTGLFGQTNTGFGAVGSTLFGNNKLTTFGSSTTSAPSFG
On to B1, for which the binding entry in assay [1] is “binds weakly”.

B2: Nup98^FG F319S mutant (protein)
chain: B1 chain with F319S
With B2, in assay [2], the binding result was “no binding (condition: at pH 3 (2.5 μM protein))”.

B3: Nup98^FG F102S/F319S double mutant (protein)
chain: B1 chain with F102S, F319S
With B3, the binding entry in assay [3] is “no binding (condition: at pH 3 (2.5 μM protein))”.

B4: Nup98^FG F102S mutant (protein)
chain: B1 chain with F102S
Turning to B4, the binding result in assay [4] was “binds weakly”.

B5: Nup98^FG F228S mutant (protein)
chain: B1 chain with F228S
On to B5, for which the binding result in assay [5] is “binds weakly”.
